Among the data in PMC4534575, “The RNA Helicase DHX34 Activates NMD by Promoting a Transition from the Surveillance to the Decay-Inducing Complex” (Cell Reports, 2014) are binding values, retold here.

One test deals with T1, T7-DHX34 (wild-type) (human, UniProt Q14147 1-1143).
T1 construct: Human DHX34, wild type; also called T7-tagged DHX34; shRNA-resistant (R) wild-type T7-DHX34; source: HEK293T, transiently transfected, in lysate; also purified on T7 agarose beads
T1 sequence (looked up): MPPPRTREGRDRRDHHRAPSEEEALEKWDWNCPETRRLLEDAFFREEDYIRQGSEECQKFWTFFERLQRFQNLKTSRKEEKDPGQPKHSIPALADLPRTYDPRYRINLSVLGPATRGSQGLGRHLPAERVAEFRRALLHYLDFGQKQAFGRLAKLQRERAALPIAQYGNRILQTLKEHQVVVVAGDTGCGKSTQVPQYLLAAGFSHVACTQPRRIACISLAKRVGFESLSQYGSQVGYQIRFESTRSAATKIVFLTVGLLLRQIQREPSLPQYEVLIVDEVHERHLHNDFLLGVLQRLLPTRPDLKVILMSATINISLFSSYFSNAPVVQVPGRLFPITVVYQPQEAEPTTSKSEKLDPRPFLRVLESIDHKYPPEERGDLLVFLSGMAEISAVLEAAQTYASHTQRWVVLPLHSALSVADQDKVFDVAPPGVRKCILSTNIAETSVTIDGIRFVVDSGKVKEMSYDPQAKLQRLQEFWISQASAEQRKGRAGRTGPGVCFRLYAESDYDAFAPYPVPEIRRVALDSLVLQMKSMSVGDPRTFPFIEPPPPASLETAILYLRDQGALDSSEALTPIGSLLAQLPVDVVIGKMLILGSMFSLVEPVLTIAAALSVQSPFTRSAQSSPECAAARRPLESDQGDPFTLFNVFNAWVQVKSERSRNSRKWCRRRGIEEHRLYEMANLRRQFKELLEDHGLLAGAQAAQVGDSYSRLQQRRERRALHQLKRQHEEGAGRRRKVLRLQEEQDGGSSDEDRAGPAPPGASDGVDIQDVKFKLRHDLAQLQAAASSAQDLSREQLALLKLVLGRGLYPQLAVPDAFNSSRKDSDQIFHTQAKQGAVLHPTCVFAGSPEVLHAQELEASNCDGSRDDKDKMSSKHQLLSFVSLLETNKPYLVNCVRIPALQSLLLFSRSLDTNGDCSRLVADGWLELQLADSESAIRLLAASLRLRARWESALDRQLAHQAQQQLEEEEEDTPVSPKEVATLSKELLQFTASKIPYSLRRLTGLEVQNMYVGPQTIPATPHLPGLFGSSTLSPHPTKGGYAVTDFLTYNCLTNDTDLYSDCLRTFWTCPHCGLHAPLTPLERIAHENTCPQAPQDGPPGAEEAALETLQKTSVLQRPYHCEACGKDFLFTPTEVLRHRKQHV
In words: pull-down; purified T7-DHX34 (wild-type or deletion constructs) on T7 agarose beads incubated with recombinant UPF1, UPF2, UPF3b or purified full-length FLAG-UPF1 in buffer D for 2 hr at 4°C; both purified.

The target of another test is T2, FLAG-KAT8 (UniProt Q9H7Z6).
T2 sequence: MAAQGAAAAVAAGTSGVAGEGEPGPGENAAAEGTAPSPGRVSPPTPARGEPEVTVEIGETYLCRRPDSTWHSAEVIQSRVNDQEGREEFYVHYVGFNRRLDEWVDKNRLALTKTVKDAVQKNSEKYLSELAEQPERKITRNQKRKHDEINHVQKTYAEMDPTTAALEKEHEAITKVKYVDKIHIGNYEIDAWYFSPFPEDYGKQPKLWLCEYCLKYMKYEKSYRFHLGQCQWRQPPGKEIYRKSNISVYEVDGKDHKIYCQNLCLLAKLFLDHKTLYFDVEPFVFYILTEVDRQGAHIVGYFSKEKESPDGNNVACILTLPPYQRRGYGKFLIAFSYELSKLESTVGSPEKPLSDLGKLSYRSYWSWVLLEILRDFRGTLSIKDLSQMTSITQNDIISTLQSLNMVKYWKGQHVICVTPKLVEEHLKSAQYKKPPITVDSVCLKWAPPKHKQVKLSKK
In words: pull-down; FLAG-DHX34 (or FLAG-KAT8) on anti-FLAG beads, washed stringently, incubated with recombinant UPF1 in buffer D for 2 hr at 4°C; mixed in a 1:1 ratio; also with RNase A 80 μg/ml; both purified.

The next test deals with T3, FLAG-DHX34 (human) (UniProt Q14147).
T3 sequence: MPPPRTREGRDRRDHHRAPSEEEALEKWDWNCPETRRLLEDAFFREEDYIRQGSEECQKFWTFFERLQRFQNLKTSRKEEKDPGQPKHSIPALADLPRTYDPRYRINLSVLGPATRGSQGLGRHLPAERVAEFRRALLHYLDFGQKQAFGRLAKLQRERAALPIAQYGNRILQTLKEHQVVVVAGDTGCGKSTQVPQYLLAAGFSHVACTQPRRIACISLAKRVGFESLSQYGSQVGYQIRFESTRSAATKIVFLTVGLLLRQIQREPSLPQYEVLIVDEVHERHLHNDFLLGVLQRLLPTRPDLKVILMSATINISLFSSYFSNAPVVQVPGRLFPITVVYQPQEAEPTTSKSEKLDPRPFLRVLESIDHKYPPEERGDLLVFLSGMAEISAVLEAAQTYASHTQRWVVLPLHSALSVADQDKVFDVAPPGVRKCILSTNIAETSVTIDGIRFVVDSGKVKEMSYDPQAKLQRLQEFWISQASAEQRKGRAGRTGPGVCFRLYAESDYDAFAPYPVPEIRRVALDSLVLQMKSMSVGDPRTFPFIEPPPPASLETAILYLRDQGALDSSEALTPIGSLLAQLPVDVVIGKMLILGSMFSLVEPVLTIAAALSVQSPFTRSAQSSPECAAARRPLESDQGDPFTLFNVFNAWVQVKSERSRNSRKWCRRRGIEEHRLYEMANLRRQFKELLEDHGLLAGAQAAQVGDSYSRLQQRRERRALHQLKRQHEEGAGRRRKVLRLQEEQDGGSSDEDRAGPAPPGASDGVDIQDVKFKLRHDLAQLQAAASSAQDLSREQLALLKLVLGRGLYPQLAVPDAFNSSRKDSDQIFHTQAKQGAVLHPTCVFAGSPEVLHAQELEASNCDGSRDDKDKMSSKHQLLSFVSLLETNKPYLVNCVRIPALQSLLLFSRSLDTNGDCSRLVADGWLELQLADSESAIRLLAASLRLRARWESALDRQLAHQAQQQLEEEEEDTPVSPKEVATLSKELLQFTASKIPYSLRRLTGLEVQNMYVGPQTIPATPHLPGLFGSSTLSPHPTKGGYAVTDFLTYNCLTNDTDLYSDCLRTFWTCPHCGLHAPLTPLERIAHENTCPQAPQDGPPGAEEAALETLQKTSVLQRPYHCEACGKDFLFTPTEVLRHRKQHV
Described as above.

The next test addresses T7-DHX34ΔHrpA (human). In words: co-IP; IP of transiently transfected T7-DHX34 (wild-type or mutants) from HEK293T lysate, in the presence of RNase A (Figure 3B); endogenous partners by western blot.
Another test addresses T7-DHX34 ΔDExH/D (human). The test is described as above.

No constants are given. Whether binding was seen depends on the method and setting. For some assays here: A result given as binding can be weak or reduced; the word gives no strength. For some assays here: Where a sequence is shown, tags or fusion partners need not be part of it. For some assays here: Binding seen in cells or lysates may run through a third protein.

For recombinant UPF1 (human), the results for the binding entry in the test with T7-DHX34 (wild-type), with FLAG-KAT8 and with FLAG-DHX34 (human) were “binds”, “no binding” and “binds”, respectively.

B1: endogenous UPF1 (protein, UniProt Q92900 1-1129)
chain: MSVEAYGPSSQTLTFLDTEEAELLGADTQGSEFEFTDFTLPSQTQTPPGGPGGPGGGGAGGPGGAGAGAAAGQLDAQVGPEGILQNGAVDDSVAKTSQLLAELNFEEDEEDTYYTKDLPIHACSYCGIHDPACVVYCNTSKKWFCNGRGNTSGSHIVNHLVRAKCKEVTLHKDGPLGETVLECYNCGCRNVFLLGFIPAKADSVVVLLCRQPCASQSSLKDINWDSSQWQPLIQDRCFLSWLVKIPSEQEQLRARQITAQQINKLEELWKENPSATLEDLEKPGVDEEPQHVLLRYEDAYQYQNIFGPLVKLEADYDKKLKESQTQDNITVRWDLGLNKKRIAYFTLPKTDSGNEDLVIIWLRDMRLMQGDEICLRYKGDLAPLWKGIGHVIKVPDNYGDEIAIELRSSVGAPVEVTHNFQVDFVWKSTSFDRMQSALKTFAVDETSVSGYIYHKLLGHEVEDVIIKCQLPKRFTAQGLPDLNHSQVYAVKTVLQRPLSLIQGPPGTGKTVTSATIVYHLARQGNGPVLVCAPSNIAVDQLTEKIHQTGLKVVRLCAKSREAIDSPVSFLALHNQIRNMDSMPELQKLQQLKDETGELSSADEKRYRALKRTAERELLMNADVICCTCVGAGDPRLAKMQFRSILIDESTQATEPECMVPVVLGAKQLILVGDHCQLGPVVMCKKAAKAGLSQSLFERLVVLGIRPIRLQVQYRMHPALSAFPSNIFYEGSLQNGVTAADRVKKGFDFQWPQPDKPMFFYVTQGQEEIASSGTSYLNRTEAANVEKITTKLLKAGAKPDQIGIITPYEGQRSYLVQYMQFSGSLHTKLYQEVEIASVDAFQGREKDFIILSCVRANEHQGIGFLNDPRRLNVALTRARYGVIIVGNPKALSKQPLWNHLLNYYKEQKVLVEGPLNNLRESLMQFSKPRKLVNTINPGARFMTTAMYDAREAIIPGSVYDRSSQGRPSSMYFQTHDQIGMISAGPSHVAAMNIPIPFNLVMPPMPPPGYFGQANGPAAGRGTPKGKTGRGGRQKNRFGLPGPSQTNLPNSQASQDVASQPFSQGALTQGYISMSQPSQMSQPGLSQPELSQDSYLGDEFKSQIDVALSQDSTYQGERAYQHGGVTGLSQY
As to B1, the binding entry with T7-DHX34ΔHrpA (human) is on record as “no binding”; in the test with T7-DHX34 ΔDExH/D (human), “binds”.
